Test results from publication PMC12508687, “Elucidating the Role and Mechanism of Alpha‐Enolase in Senescent Amelioration via Metabolic Reprogramming” (Cell Proliferation, 2025).
No constants are given. Whether binding was seen depends on the method and setting. Binding seen in cells or lysates may run through a third protein. Some results given as binding are weak or reduced against the parent protein; the word gives no strength.

The chains behind the UniProt entries cited, without tags or fusion partners. Where a name states a change or a piece, a line headed by the entry shows the natural chain unless it says otherwise. A line that says so, or that is headed by a name, gives the form on record, which may keep a tag or linker. Residues count along the entry.
UniProt P14618: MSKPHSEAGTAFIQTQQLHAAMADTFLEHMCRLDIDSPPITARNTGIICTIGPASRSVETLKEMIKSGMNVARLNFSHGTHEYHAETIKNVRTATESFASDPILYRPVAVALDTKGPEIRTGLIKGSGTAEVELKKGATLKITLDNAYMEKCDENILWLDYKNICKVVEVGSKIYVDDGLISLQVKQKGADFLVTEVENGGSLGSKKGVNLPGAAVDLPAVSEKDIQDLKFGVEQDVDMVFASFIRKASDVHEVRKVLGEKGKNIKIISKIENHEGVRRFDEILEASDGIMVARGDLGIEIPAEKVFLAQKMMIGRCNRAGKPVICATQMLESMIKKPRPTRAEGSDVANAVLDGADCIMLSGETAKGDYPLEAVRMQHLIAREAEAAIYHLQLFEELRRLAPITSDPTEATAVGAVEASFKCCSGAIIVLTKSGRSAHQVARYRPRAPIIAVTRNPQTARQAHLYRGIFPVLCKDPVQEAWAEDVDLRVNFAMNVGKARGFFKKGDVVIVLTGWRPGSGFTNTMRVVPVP
UniProt P06733: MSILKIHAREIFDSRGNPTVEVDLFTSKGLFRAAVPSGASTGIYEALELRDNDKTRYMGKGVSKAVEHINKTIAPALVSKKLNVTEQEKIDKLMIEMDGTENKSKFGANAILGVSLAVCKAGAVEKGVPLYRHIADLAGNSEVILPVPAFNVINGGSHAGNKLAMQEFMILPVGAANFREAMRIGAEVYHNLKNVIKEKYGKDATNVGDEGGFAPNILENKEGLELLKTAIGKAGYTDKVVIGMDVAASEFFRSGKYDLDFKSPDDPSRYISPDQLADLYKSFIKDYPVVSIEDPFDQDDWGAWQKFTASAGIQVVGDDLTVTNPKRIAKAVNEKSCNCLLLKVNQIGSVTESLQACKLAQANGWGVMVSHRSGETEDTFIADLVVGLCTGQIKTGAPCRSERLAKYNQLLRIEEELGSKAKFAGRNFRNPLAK
Myc-tagged ENO1 (alpha-enolase): residues 2-434 of P06733

Tests used:
[1] = molecular target: Myc-tagged PKM (pyruvate kinase M) (UniProt P14618); assay: co-IP; HEK293T cells transfected with pCMV-Myc-PKM or pCMV-Myc-ENO1, treated with DMSO or KB2764, immunoprecipitated with Myc-tag antibody; endogenous partner detected by immunoblot
[2] = molecular target: Myc-tagged ENO1 (alpha-enolase) (UniProt P06733); assay: as above

binding [1] | binding [2] | Substance
binds | – | endogenous ENO1 (alpha-enolase) (from UniProt P06733 1-434) (enzyme)
– | binds | endogenous PKM (pyruvate kinase M) (from UniProt P14618 1-531) (enzyme)
